# Assay results reported in paper PMC4807998.
# Biological target: T1, APPL1 (endogenous) (human (endogenous in PC-3U)) (UniProt Q9UKG1)
# T1 sequence: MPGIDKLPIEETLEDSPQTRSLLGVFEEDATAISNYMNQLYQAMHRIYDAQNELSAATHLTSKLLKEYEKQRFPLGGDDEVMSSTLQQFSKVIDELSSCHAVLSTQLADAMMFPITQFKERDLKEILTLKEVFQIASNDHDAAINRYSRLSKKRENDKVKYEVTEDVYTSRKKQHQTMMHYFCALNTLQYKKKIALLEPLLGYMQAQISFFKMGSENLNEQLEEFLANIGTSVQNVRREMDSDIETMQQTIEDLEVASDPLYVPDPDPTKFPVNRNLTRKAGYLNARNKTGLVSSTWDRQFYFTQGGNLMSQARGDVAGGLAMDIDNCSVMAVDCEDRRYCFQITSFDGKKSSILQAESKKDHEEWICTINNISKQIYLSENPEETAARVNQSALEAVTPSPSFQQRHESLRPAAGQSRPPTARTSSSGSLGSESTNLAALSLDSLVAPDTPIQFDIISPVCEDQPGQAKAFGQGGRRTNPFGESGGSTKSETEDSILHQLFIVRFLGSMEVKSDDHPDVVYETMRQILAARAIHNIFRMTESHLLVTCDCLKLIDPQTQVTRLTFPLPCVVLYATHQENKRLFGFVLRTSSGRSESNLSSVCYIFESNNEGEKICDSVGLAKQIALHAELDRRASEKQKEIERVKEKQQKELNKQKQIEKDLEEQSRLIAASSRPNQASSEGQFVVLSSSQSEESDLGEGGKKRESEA
# Test: co-IP; PC-3U whole-cell lysates, IP with APPL1 antibody, blot for PKCζ or β-tubulin; endogenous proteins; cells with or without TGFβ, control or TRAF6 siRNA
substance,measurement,value
β-tubulin (endogenous) (human (endogenous in PC-3U)),binding,binds

# These are yes or no findings as the source states them, for the method shown. In cells and extracts the contact can be indirect. A result given as binding can be weak or reduced; the word gives no strength.
